Measurements published in patent US20050004171A1, “Novel substituted benzimidazole dosage forms and method of using same” (priority 1996, published 2005).
At least one structure is not confirmed: it was looked up by name or label, or the drawing left a doubt.

How the values were obtained:
[1] = test system: stress-related mucosal bleeding; test: Example IX: clinically significant stress-related mucosal bleeding, mortality, pneumonia and adverse events in mechanically ventilated critically ill patients; conditions: all five patients who bled on ranitidine or cimetidine before entry
gastric pH [2] = test: Example IX: gastric pH of nasogastric aspirate (pH paper) in mechanically ventilated critically ill patients; type: in vivo, human
Experimental: Each dose was administered through the nasogastric tube.
Gastric pH was measured immediately after aspirating gastric contents through the nasogastric tube. pH paper (pHydrion improved pH papers, Microessential Laboratory, Brooklyn, N.Y.) was used to measure gastric aspirate pH. The pH range of the test strips was 1 to 11, in increments of one pH unit. Gastric pH was measured before the initiation of omeprazole solution therapy, immediately before each dose, and every four hours between doses.

[3] = test system: children with gastroesophageal reflux disease; test: Retrospective evaluation of omeprazole or lansoprazole Choco-Base suspension in children with gastroesophageal reflux disease; conditions: 10 mg of omeprazole qd (1 mg/kg) in Choco-Base; first few months
gastric pH [4] = test: Example XV: intragastric pH tracings after single dose SOS; type: in vivo, human; conditions: first dose; single dose SOS 40 mg
[5] = Calculation of Essential pH and Stability Range Factor (SRF); type: physicochemical; conditions: 12-24 mEq of sodium bicarbonate when encountering 12-24 mEq of HCl
Experimental: A proton pump inhibitor dose within its calculated pHE range is designed to ensure sufficient proton pump inhibitor protection from acid degradation such that delivery to and action upon proton pumps occur. In one desirable embodiment, the pHE is the sum of the pKa of a given proton pump inhibitor plus about 0.7.
SRF is calculated based on the desirable shelf-life (or a dwell time), the environmental pH and the amount of acid expected to be encountered, along with a knowledge of the time of exposure expected after the drug is administered and before the drug reaches the blood (i.e., the dwell time).
The upper limit of the SRF is a function of the tolerability of the gastrointestinal mucosa to alkaline substances, which is determined by the Formulation pH and the concentration of alkaline material presented. […] It is acknowledged that the amount of buffer is an important aspect of the tissue destructive potential of an alkaline substance.
Examples of pHE calculations with SRF for specific proton pump inhibiting agents are as follows:
pHE of proton pump inhibitor=pKa of proton pump inhibitor+0.7.

[6] = Color change and pH of rabeprazole suspensions in various buffers stored refrigerated; type: physicochemical; conditions: refrigerated suspension; for Color 14 days: original color white
[7] = 20 mg rabeprazole in Disodium phosphate 700 mg, Trisodium phosphate 100 mg/10 mL
[8] = 20 mg rabeprazole in Disodium phosphate 800 mg/10 mL
[9] = 20 mg rabeprazole in Sodium bicarbonate 800 mg/10 mL

Structure (SMILES)	time until bleeding subsided/stopped [1]	gastric pH maintained in the two efficacy failures (gastric pH [2]; dose increased to 40 mg/day)	patients with gastric pH maintained above 4 (gastric pH [2]; omeprazole 20 mg/day)	patients considered efficacy failures (inadequate gastric pH control) (gastric pH [2]; standard 20 mg/day maintenance dose)	gastric pH in three patients with pH below three on an H2-antagonist (gastric pH [2]; within four hours after omeprazole initiated)	gastric pH in five patients who bled on H2-antagonist infusion (gastric pH [2]; within thirty-six hours after initiating omeprazole)	effectiveness of initial low dose [3]	gastric pH control (gastric pH [4])	fraction of drug protected [5]	pH at 14 days [6, 7]	Color 14 days [6, 7]	pH at 14 days [6, 8]	Color 14 days [6, 8]	pH at 14 days [6, 9]	Color 14 days [6, 9]
COc1ccc2[nH]c([S+]([O-])Cc3ncc(C)c(OC)c3C)nc2c1 (stereo not drawn) [Omeprazole]	thirty-six	above four	seventy-three of seventy-five	Two	above five	above five	somewhat ineffective	very rapid and sustained at an unusually high pH	greater than 95%						
COCCCOc1ccnc(C[S+]([O-])c2nc3ccccc3[nH]2)c1C (stereo not drawn) [rabeprazole]										10.5	white	10.3	white	8.3	brown
